From patent US20080176814, “DNA-BASED APTAMERS FOR HUMAN CATHEPSIN G” (GENTIUM SPA, published 2008)
The comparison behind a weaker result is the experiment's own reference, which may not be listed here. Where a protein sequence is shown, tags need not be part of it. The exact form of at least one protein or probe is not confirmed.

Molecular target: T1, Cathepsin G (Homo sapiens) (UniProt P08311)
T1 sequence (looked up, limits assumed): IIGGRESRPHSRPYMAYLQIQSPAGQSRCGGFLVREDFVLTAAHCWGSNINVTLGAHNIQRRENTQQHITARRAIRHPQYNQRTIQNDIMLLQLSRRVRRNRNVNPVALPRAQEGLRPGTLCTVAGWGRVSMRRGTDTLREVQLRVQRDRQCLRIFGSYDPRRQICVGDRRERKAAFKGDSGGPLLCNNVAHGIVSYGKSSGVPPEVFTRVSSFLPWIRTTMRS
Test: binding assay
Details: purified native protein

Sequence | Kd (affinity chromatography on Sepharose SP, 30 mM Tris pH 7.5, 150 mM NaCl, 5 mM KCl, 5 mM MgCl2, on ice, single-stranded DNA) | binding result (affinity chromatography, lower affinity than single-stranded CG51, variant of CG51 (=CG43))
CAACGTGTGATATGTGGGTATACGCTTGGGTGTTACGCTGAGCACAGAGGGTATTCGTGT [CG51 (=CG43)] | 0.9 nM | 
CAACGTGTGATATGTGGGTATACGCTTGGGTGTTACGCTGAGCACAGAGGGTATTCGTGT (double strand) [double stranded CG51] |  | binds more weakly
